Measurements published in publication PMC12850329.
These are yes or no findings as the source states them, for the method shown. In cells and extracts the contact can be indirect. Here binding means that the protein was enriched with, or labelled near, the bait; the list need not be complete.

Target: Hypoxia-induced gene domain protein-1a (HIGD1A) (human (endogenous in HK-2))
Test: affinity purification with mass spectrometry; Co-IP of HIGD1A coupled with LC-MS/MS, HK-2 cells, basal and AA-exposed

B1: mitochondrial transcription factor A (TFAM) (protein, UniProt Q00059 43-246)
chain: SSVLASCPKKPVSSYLRFSKEQLPIFKAQNPDAKTTELIRRIAQRWRELPDSKKKIYQDAYRAEWQVYKEEISRFKEQLTPSQIMSLEKEIMDKHLKRKAMTKKKELTLLGKPKRPRSAYNVYVAERFQEAKGDSPQEKLKTVKENWKNLSDSEKELYIQHAKEDETRYHNEMKSWEEQMIEVGRKDLLRRTIKKQRKYGAEEC
  binding: binds
